Results deposited as PubChem BioAssay AID1508597 (Cure First, 2020)
This is a random part of the about 2,100 reagents, in one setting of the screen. 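Calls flag viability under 80% in either arm, not effects specific to rucaparib; the reference for percent is not stated.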 Unmarked entries are inactive. No sequences are given here. The record does not give: the 100% reference.

Purpose: 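Knock-downs altering ovarian cancer cell survival with or without PARP inhibitor rucaparib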 (primary screen)
System: human ovarian carcinoma lines grown from tumours: OCI-P5x (papillary serous) and OCI-C5x (clear cell)
Knock-down reagent: siRNA pool against human genes, 1.25 pmol siRNA per well
Duration: 72 h or 96 h, depending on the cell culture
Challenge: rucaparib 20 µM (about IC30) or vehicle, present until read-out
Rucaparib or vehicle: Vehicle
Cell line: OCI-P5x (serous)
Detection: 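Luminescent ATP-based viability assay read 72 or 96 h after transfection, depending on culture, given as normalised percent viability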
Direction: viability, normalised: higher = more viable cells remaining
Rule for the call: 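Active when normalised viability falls below 80 percent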
Meaning of the calls: active = viability under 80%; inactive = viability 80% or more

What did the screen give for PRMT7 [SID405527205], technical replicate 1?
viability, normalised (%): 39.4 (active)

For PRMT7 [SID405527205], technical replicate 2, how do the results read?
viability, normalised (%): 50.1 (active)

How did the screen score PRMT7 [SID405527205], technical replicate 3?
viability, normalised (%): 77.8 (active)

Which result is listed for POLM [SID405528331], technical replicate 1?
viability, normalised (%): 90.2

What did the screen give for POLM [SID405528331], technical replicate 2?
viability, normalised (%): 88.7

What is on record for POLM [SID405528331], technical replicate 3?
viability, normalised (%): 98.7

With TJP2 [SID405527672], technical replicate 1, what does the deposit list?
viability, normalised (%): 74 (active)

For TJP2 [SID405527672], technical replicate 2, what was measured?
viability, normalised (%): 70.9 (active)

For TJP2 [SID405527672], technical replicate 3, what was measured?
viability, normalised (%): 85.4

For PLCG1 [SID405526713], technical replicate 1, what does the deposit list?
viability, normalised (%): 87.4

For PLCG1 [SID405526713], technical replicate 2, what does the deposit list?
viability, normalised (%): 75.1 (active)

For PLCG1 [SID405526713], technical replicate 3, what was measured?
viability, normalised (%): 67.9 (active)

What is on record for HIPK3 [SID405527378], technical replicate 1?
viability, normalised (%): 85.2

With HIPK3 [SID405527378], technical replicate 2, what does the deposit list?
viability, normalised (%): 41.4 (active)

With HIPK3 [SID405527378], technical replicate 3, how do the results read?
viability, normalised (%): 79.3 (active)

With IKBKE [SID405527661], technical replicate 1, what was measured?
viability, normalised (%): 54 (active)

With IKBKE [SID405527661], technical replicate 2, what was measured?
viability, normalised (%): 59.4 (active)

With IKBKE [SID405527661], technical replicate 3, how do the results read?
viability, normalised (%): 63.9 (active)

For MECP2 [SID405526978], technical replicate 1, what does the deposit list?
viability, normalised (%): 49.9 (active)

For MECP2 [SID405526978], technical replicate 2, what was measured?
viability, normalised (%): 61.7 (active)

With MECP2 [SID405526978], technical replicate 3, what does the deposit list?
viability, normalised (%): 68.5 (active)

A few values from the entries so far:
Under “viability, normalised (%)”, POLM [SID405528331], technical replicate 3 reads 98.7
MECP2 [SID405526978], technical replicate 3, viability, normalised (%) → 68.5 (active)
IKBKE [SID405527661], technical replicate 1, viability, normalised (%): 54 (active)
